# Library screening results

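Viability assay of Plasmodium falciparum sporozoites; the read-out is not stated. The concentration is filed as 10 mM, unlikely as a test dose, so the dose is not known. The record gives no direction; compounds that gave an IC50 in retests scored well above the rest, so higher reads as lower viability. Strong results were mostly tested again. Size under these conditions: about 34,000 compounds, about 280 of them at 50% or above in at least one test.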

The filed quantity is “Percent Effect” (%). How 0% and 100% were set is not recorded. Most values in the screen are low, and negative values occur. The compounds are a random part of those screened. Two or more numbers in one place are separate tests of the same structure; such repeats can differ widely.

O=C(c1cccc(NCCO)c1)N1CCOCC1 read -3.926%.
CN(c1ccncn1)C1CC2(CCN(C(=O)CCc3cccs3)C2)C1 (configuration not stated) read -8.649%.
CN(Cc1cnn(C)c1)C(=O)c1cc2ccccc2c(=O)[nH]1 read -13.71%.
O=C(N1CCCCC1)N1CCCC(c2ncncc2-c2ccncc2)C1 (configuration not stated) read 0.3933%.
CCc1nc(CN2CCCC(NCc3ccc(C(N)=O)cc3)C2)no1 (configuration not stated) read -9.128%.
Cc1ncc2c(n1)CN(Cc1noc(C3CC3)n1)CC2 read 19.79%.
COc1ccc(N(C)Cc2nc3c(cnn3C)c(=O)[nH]2)cc1OC read 5.653%.
CSc1ccc(-c2nc(CN3CCC(NC(C)=O)C3)c(C)o2)cc1 (configuration not stated) read 76.12% & 85.32% & 90.74%.
Cc1cccc(CN2CCn3c(C(=O)N(C)C)cnc3C2)c1 read 12.63%.
Cc1cccc(CS(=O)(=O)CC(=O)N(C)Cc2ccccc2F)c1 read -7.581%.
CN(C)c1ncccc1NC(=O)C1CN(Cc2ccccc2)CCO1 (configuration not stated) read -32.6%.
O=C(CCc1cccnc1)N(Cc1ccsc1)CC1CCCO1 (configuration not stated) read 4.118%.
O=C1CCc2cc(-c3csc(CCN4CCCC4=O)n3)ccc2N1 read 5.887%.
Cc1cc(C)c(CNC(=O)N2CCCC2c2cc(C)on2)c(=O)[nH]1 (configuration not stated) read 5.284%.
NC(=O)C1CCCN(C(=O)c2ccn(-c3ccc(F)cc3)n2)C1 (configuration not stated) read 1.953%.
Cc1cccc(=O)n1CCC(=O)N1CCC2(CC1)OCCCC2O (configuration not stated) read 1.228%.
CCOCC(O)CN1CCN(C(=O)Cc2cccc(C)c2)CC1 (configuration not stated) read 14.07%.
COC(=O)CNC(=O)c1ccn(-c2ccc(Cl)c(Cl)c2)n1 read -8.045%.
CCn1nc(CC(C)C)cc1C(=O)NCCCOC read -8.511%.
CS(=O)(=O)c1ccc(C(=O)NCCNc2ncccn2)cc1 read -3.501%.
Cc1cnc(CN(C)C2CCN(CC(=O)Nc3nccs3)C2)o1 (configuration not stated) read 2.596%.
CCN(CC1CN(CC2CCC2)CCO1)c1cccnn1 (configuration not stated) read -6.863%.
Cc1cc(-c2cc(N)c(=O)n(CC(=O)NC3CCCCC3)n2)c(C)o1 read 1.963%.
CN1CC2(CCN(C(=O)Cn3ncc4ccccc4c3=O)CC2)OC1=O read -0.641%.
CCN1CCC(NC(=O)NC2CCOc3ccc(Br)cc32)CC1 (configuration not stated) read -8.215%.
CCc1oc(C(=O)NC(C)c2ncn[nH]2)cc1CN1CCCC1 (configuration not stated) read -4.297%.
O=C(O)C(F)(F)F.[H][C@@]12COC[C@]1([H])[C@@H](OCC1CCOCC1)CN2Cc1cc(C)c(C)o1 read -10.19%.
CC(C)C[C@@H](CO)n1cc(-c2cnc(-c3ccco3)nc2)nn1 read -18%.
CCCN(C(=O)CS(=O)(=O)c1ccccc1)c1cccc(C)c1 read -10.45%.
Cc1cc(C)n(CC2CCCN2C(=O)c2cnn(C)c2C2CC2)n1 (configuration not stated) read -5.43%.
CCc1ccccc1-c1cc(OC)nc(N)n1 read -10.62%.
CC(NCc1ccncc1)c1cc2c(cc1Br)OCCO2 (configuration not stated) read -0.8881%.
O=C(O)C(F)(F)F.[H][C@@]12CCN(Cc3nccs3)[C@]1([H])CC[C@@H](C(=O)N(C)C)O2 read -7.401%.
Cc1noc(C)c1-c1cc(C2CCNCC2)ccn1 read 4.456%.
CN(C)c1ccc(NC(=O)NCc2cccnc2N(C)C)cn1 read -8.217%.
CN(C)C(=O)c1cn[nH]c1C1CCCN1Cc1cncn1C (configuration not stated) read 5.136%.
Cn1cc(CN2CCn3c(CNC(=O)c4cccn4C)cnc3C2)cn1.O=C(O)C(F)(F)F read -147.9%.
O=C(CC1CCCC1)N1CCn2cc(Cn3cccn3)nc2C1.O=C(O)C(F)(F)F read 9.364%.
CN(Cc1ccco1)C(=O)Nc1cccnc1N1CCCC1 read 1.167%.
O=C(CCCc1ccccn1)N1CCCC(n2cccn2)C1 (configuration not stated) read 0.2979%.
Cc1nc(CN2CCCC(NCc3csc(C(C)(C)C)n3)C2)no1 (configuration not stated) read 1.561%.
CCn1cncc1CN(Cc1ccc(OC)cc1OC)CC1CCCO1.O=C(O)CC(O)(CC(=O)O)C(=O)O (configuration not stated) read -5.496%.
c1cncc(-c2noc(CN3CCn4c(nnc4C4CC4)C3)n2)c1 read 4.787%.
COC(=O)c1ccc(N2CCN(CC(=O)NC(N)=O)C(C)C2)cc1 (configuration not stated) read 8.322%.
O=C(O)C(F)(F)F.O=C(O)C(F)(F)F.O=C1COC2(CCN(Cc3cccnc3)CC2)CN1c1ccccc1 read 20.66%.
CC(C)N1CCOCC2(CN(Cc3ccco3)CCO2)C1 (configuration not stated) read -2.9%.
COCCCN(Cc1cnc(-c2ccccn2)nc1)C1CCN(C)CC1 read -17.23% & -27.6%.
Cc1cc(C(=O)N2CCc3nc(N4CCOCC4)nc(C)c3C2)c(C)o1.O=CO read 15.02%.
CN(Cc1ccccc1C#N)C1CCN(CCc2ccccn2)CC1 read 18.47%.
CC(C)(C)c1nc(CN2CCOC(Cn3cncn3)C2)cs1 (configuration not stated) read -2.659%.
Fc1ccc(CN2CCCC(c3cc4ncccc4[nH]3)C2)cc1 (configuration not stated) read 1.101%.
Cc1cccc(N2CCN(Cc3nc(CC4CC4)no3)CC2)n1 read -9.967%.
CCc1nc(C2CCCN2Cc2ccno2)no1 (configuration not stated) read -3.188%.
Cc1cc(C[C@@H]2CCC[C@H]2NCc2cc(C)c(O)c(C)c2)on1.O=C(O)CC(O)(CC(=O)O)C(=O)O read 8.175%.
COc1ccc(CNCC2CCN(c3ccccc3OC)C2)cc1O (configuration not stated) read 5.639%.

6 of the entries, repeated:

- CCc1oc(C(=O)NC(C)c2ncn[nH]2)cc1CN1CCCC1 (configuration not stated) : -4.297%
- CCN1CCC(NC(=O)NC2CCOc3ccc(Br)cc32)CC1 (configuration not stated) : -8.215%
- NC(=O)C1CCCN(C(=O)c2ccn(-c3ccc(F)cc3)n2)C1 (configuration not stated) : 1.953%
- COC(=O)c1ccc(N2CCN(CC(=O)NC(N)=O)C(C)C2)cc1 (configuration not stated) : 8.322%
- Cc1nc(CN2CCCC(NCc3csc(C(C)(C)C)n3)C2)no1 (configuration not stated) : 1.561%
- Cc1cc(C[C@@H]2CCC[C@H]2NCc2cc(C)c(O)c(C)c2)on1.O=C(O)CC(O)(CC(=O)O)C(=O)O : 8.175%

Source: ChEMBL document CHEMBL3988442, “University of Dundee, Small-Polar-MMV Screening Library” (2021).